Assay results taken from PMC12823420.
For at least one entry, the source does not settle the construct or the ends of the probe. For part of these data: A weaker result is weaker than the reference pair of the same experiment. For part of these data: At least one verdict rests on a figure or table, not on a statement of the authors.

Experiments:
UAP56 (Homo sapiens) [1] = biological target: UAP56 (Homo sapiens) (UniProt Q13838); test: pull-down (RNA unclamping); conditions: ATP pre-clamped, challenged with TREX-2M, UAP56 removed almost completely; AdML pull-down: 20 mM HEPES pH 7.9, 100 mM KCl, 2 mM MgCl2, 5% glycerol, 0.1% Igepal, 1 mM AMP-PNP, RT; recombinant protein; residues 1-428
[2] = tested on: UAP56-N-UBM fusion (Homo sapiens); test: GCI; conditions: 1 mM ATP, RNA immobilized, higher affinity than UAP56, Kd only in figure, GCI: 25 mM HEPES pH 7.9, 50 mM KCl, 1 mM MgCl2, 1 mM TCEP, 25 C, unclamping: same with 40 mM KCl, 500 mM KCl washes, recombinant protein, protein details: 10xHis
UAP56 (Homo sapiens) [3] = biological target: UAP56 (Homo sapiens) (UniProt Q13838); test: pull-down; conditions: ATP pre-clamped on bead-bound RNA, no challenger; AdML pull-down: 20 mM HEPES pH 7.9, 100 mM KCl, 2 mM MgCl2, 5% glycerol, 0.1% Igepal, 1 mM AMP-PNP, RT; recombinant protein; residues 1-428

UUUUUUUUUUUUUUU [15U RNA]: binds more weakly (UAP56 (Homo sapiens) [1]); binds [2]; binds (UAP56 (Homo sapiens) [3]).
